Test results published in doi:10.1101/2021.04.12.439585.
These are yes or no findings as the source states them, for the method shown. Binding seen in cells or lysates may run through a third protein. Some binding calls cover weakened binding; strength is not graded here.

Amino acid sequences for entries named in this document (tags omitted).
UniProt P03427: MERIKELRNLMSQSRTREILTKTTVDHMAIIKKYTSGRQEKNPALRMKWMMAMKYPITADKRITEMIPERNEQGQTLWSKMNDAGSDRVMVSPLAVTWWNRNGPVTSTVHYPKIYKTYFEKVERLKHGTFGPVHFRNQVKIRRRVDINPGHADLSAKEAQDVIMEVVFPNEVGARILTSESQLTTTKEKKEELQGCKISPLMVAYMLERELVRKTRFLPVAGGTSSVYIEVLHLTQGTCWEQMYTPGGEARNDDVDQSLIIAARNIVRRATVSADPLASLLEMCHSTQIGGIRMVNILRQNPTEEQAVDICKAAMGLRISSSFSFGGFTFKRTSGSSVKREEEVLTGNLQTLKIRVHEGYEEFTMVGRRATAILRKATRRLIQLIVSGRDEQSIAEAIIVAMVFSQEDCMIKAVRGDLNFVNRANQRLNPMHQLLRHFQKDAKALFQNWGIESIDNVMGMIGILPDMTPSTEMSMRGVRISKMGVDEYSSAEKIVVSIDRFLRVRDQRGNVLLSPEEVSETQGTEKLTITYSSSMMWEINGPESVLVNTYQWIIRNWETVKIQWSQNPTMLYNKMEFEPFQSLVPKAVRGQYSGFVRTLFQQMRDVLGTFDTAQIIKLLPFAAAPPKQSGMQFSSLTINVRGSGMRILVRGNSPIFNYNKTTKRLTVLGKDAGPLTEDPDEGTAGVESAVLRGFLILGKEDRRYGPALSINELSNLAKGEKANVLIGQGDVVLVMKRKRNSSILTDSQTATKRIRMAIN
UniProt P15682: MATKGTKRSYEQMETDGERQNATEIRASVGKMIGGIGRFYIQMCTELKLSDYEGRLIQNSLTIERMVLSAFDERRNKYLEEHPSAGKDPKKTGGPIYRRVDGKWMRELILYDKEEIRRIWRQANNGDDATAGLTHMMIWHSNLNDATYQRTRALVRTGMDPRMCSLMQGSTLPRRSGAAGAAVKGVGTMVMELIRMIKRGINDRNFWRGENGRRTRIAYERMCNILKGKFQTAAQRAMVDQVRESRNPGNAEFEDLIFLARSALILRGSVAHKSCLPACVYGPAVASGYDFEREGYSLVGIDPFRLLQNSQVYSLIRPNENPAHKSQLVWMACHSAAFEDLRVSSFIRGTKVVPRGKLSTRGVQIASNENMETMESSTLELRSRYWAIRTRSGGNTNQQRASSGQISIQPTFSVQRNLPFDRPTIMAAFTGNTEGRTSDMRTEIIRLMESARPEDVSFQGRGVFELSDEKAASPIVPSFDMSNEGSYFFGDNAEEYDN

Molecular target: PB2-FLAG, wild type (influenza A/WSN/33) (influenza A virus A/WSN/33 (A/H1N1/WSN/1933)) (UniProt P03427)
Experiment: co-IP

Substance: NP-V5 (nucleoprotein, influenza A/WSN/33) (from UniProt P15682 1-498)
- binding: binds
